The list does not hold the whole screen: it gathers tests that were run many times, whatever their T/C, doses with no T/C, and many T/C values between a quarter and a half above the control. Other doses and runs of a compound stand elsewhere. T/C gives the treated animals as a percentage of the vehicle group. Some entries give survivors of the animals treated and no T/C: the source holds a T/C of zero for them, seemingly a mark for toxic or unscored doses. Some doses without a T/C left all or most animals alive at the check, yet need not have been tolerated: the source hardly ever lists a survival T/C far under the control, and the zero likely stands for such cases as well. Survivors were counted at the toxicity check, usually on the fifth day, unless a day is given; later deaths do not show. Schedules are NCI's codes, read here as Q, the interval in days (D) or hours (H), X, the number of doses. Some doses were run more than once; the values are given in rising order. Counts like (3×) stand for listed records that agree. For survival time, the PubChem record calls one and a half times the control and up active, and a quarter to a half above the control has no call in these data; cut-offs in other NCI protocols can differ. Some T/C values are followed by the survivors on the day toxicity was checked, most often the fifth; without a count, all were alive then.
Test system: CD2F1 mice, L1210 leukemia ip, survival T/C
Assay: NCI In Vivo Anticancer Drug Screen. Data for tumor model L1210 Leukemia (intraperitoneal) in CD2F1 (CDF1) mice
Conditions: T/C endpoint: median survival time, higher T/C = longer survival
How it was run: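 Vehicle-treated tumor-bearing mice served as controls (C) for compound-treated mice (T). Reported figure is T divided by C.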

O=NN(CCCl)C(=O)NCCCl
T/C (dose: 15.0 mg/kg/injection, schedule: Q01DX005 (ip), vehicle: saline + alcohol, evaluated on day 35): 160 % of control
T/C (dose: 15.0 mg/kg/injection, schedule: Q01DX005 (ip), vehicle: saline + alcohol, evaluated on day 60): 145 and 402 % of control
T/C (dose: 15.0 mg/kg/injection, schedule: Q01DX009 (ip), vehicle: saline + alcohol, evaluated on day 30): 132, 136, 138 (2×), 145, 150 (2×), 158 (2×), 160 (2×), 172, 176, 184, 186, 187, 188 [5 of 6 alive], 204, 223, 230, 240, 259, 273, 308, 370, 375 % of control
T/C (dose: 15.0 mg/kg/injection, schedule: Q01DX009 (ip), vehicle: saline + alcohol, evaluated on day 35): 145 % of control
T/C (dose: 15.0 mg/kg/injection, schedule: Q01DX009 (ip), vehicle: saline + alcohol, evaluated on day 60): 143 and 144 % of control
T/C (dose: 20.0 mg/kg/injection, schedule: Q01DX001 (ip), vehicle: saline + alcohol, evaluated on day 7): 196 and 228 % of control
T/C (dose: 20.0 mg/kg/injection, schedule: Q01DX001 (ip), vehicle: saline + alcohol, evaluated on day 9): 183 % of control [8 of 9 alive]
T/C (dose: 20.0 mg/kg/injection, schedule: Q01DX001 (ip), vehicle: saline + alcohol, evaluated on day 30): 127, 146, 160, 161, 168, 174, 179, 186 (2×), 190, 197 (2×), 219, 233, 237, 253, 308, 337, 348, 352, 361, 370 (4×), 375 % of control
T/C (dose: 20.0 mg/kg/injection, schedule: Q01DX001 (ip), vehicle: saline + alcohol, evaluated on day 35): 160 % of control
T/C (dose: 20.0 mg/kg/injection, schedule: Q01DX001 (ip), vehicle: saline + alcohol, evaluated on day 45): 256, 451, 535 % of control
T/C (dose: 20.0 mg/kg/injection, schedule: Q01DX001 (ip), vehicle: saline + alcohol, evaluated on day 60): 182 and 722 % of control (2×)
T/C (dose: 30.0 mg/kg/injection, schedule: Q01DX001 (ip), vehicle: saline + alcohol, evaluated on day 7): 216 and 223 % of control
T/C (dose: 30.0 mg/kg/injection, schedule: Q01DX001 (ip), vehicle: saline + alcohol, evaluated on day 9): 211 % of control
T/C (dose: 30.0 mg/kg/injection, schedule: Q01DX001 (ip), vehicle: saline + alcohol, evaluated on day 45): 535 and 548 % of control (2×)
T/C (dose: 30.0 mg/kg/injection, schedule: Q01DX001 (ip), vehicle: saline + alcohol, evaluated on day 60): 722 % of control
T/C (dose: 30.0 mg/kg/injection, schedule: Q01DX005 (ip), vehicle: saline + alcohol, evaluated on day 30): 98, 100, 101, 102 (2×), 103, 111, 114 (2×), 115, 117, 119, 120, 127, 128 (2×), 130, 133 (2×), 134, 136, 168, 283 % of control
T/C (dose: 30.0 mg/kg/injection, schedule: Q01DX005 (ip), vehicle: saline + alcohol, evaluated on day 35): 114 % of control
T/C (dose: 30.0 mg/kg/injection, schedule: Q01DX005 (ip), vehicle: saline + alcohol, evaluated on day 60): 96 and 101 % of control
survivor count (dose: 30.0 mg/kg/injection, schedule: Q01DX005 (ip), vehicle: saline + alcohol): 6 of 6
T/C (dose: 30.0 mg/kg/injection, schedule: Q01DX005 (ip), vehicle: saline): 148 % of control
T/C (dose: 30.0 mg/kg/injection, schedule: Q01DX009 (ip), vehicle: saline + alcohol, evaluated on day 30): 88, 92, 94, 96, 97, 102 (3×), 103 (2×), 104, 105, 108, 112, 116 (2×), 121, 123 (3×), 124, 125, 126, 128, 131 % of control [5 of 6 alive]
T/C (dose: 30.0 mg/kg/injection, schedule: Q01DX009 (ip), vehicle: saline + alcohol, evaluated on day 35): 111 % of control
T/C (dose: 30.0 mg/kg/injection, schedule: Q01DX009 (ip), vehicle: saline + alcohol, evaluated on day 60): 104 and 107 % of control
survivor count (dose: 30.0 mg/kg/injection, schedule: Q01DX009 (ip), vehicle: saline + alcohol): 6 of 6
T/C (dose: 30.0 mg/kg/injection, schedule: Q01DX009 (ip), vehicle: saline): 127 % of control
T/C (dose: 40.0 mg/kg/injection, schedule: Q01DX001 (ip), vehicle: saline + alcohol, evaluated on day 6): 188 and 219 % of control
T/C (dose: 40.0 mg/kg/injection, schedule: Q01DX001 (ip), vehicle: saline + alcohol, evaluated on day 7): 192 and 223 % of control
T/C (dose: 40.0 mg/kg/injection, schedule: Q01DX001 (ip), vehicle: saline + alcohol, evaluated on day 9): 241 % of control
T/C (dose: 40.0 mg/kg/injection, schedule: Q01DX001 (ip), vehicle: saline + alcohol, evaluated on day 30): 188 [5 of 6 alive], 312, 322 (2×), 333 (2×), 337, 340, 348, 352, 361 (3×), 365, 370 (9×), 375 % of control (3×)
T/C (dose: 40.0 mg/kg/injection, schedule: Q01DX001 (ip), vehicle: saline + alcohol, evaluated on day 35): 283 % of control
T/C (dose: 40.0 mg/kg/injection, schedule: Q01DX001 (ip), vehicle: saline + alcohol, evaluated on day 60): 353 and 722 % of control
T/C (dose: 64.0 mg/kg/injection, schedule: Q01DX001 (ip), vehicle: saline + alcohol): 144 % of control
T/C (dose: 80.0 mg/kg/injection, schedule: Q01DX001 (ip), vehicle: saline + alcohol, evaluated on day 30): 90, 91, 93, 98, 112 (2×), 114, 123, 135, 166, 227, 322, 357, 361, 375 % of control
T/C (dose: 80.0 mg/kg/injection, schedule: Q01DX001 (ip), vehicle: saline + alcohol, evaluated on day 60): 95 % of control
survivor count (dose: 80.0 mg/kg/injection, schedule: Q01DX001 (ip), vehicle: saline + alcohol): 3 of 6, 4 of 6 (2×), 5 of 6 (2×), 6 of 6

From PubChem BioAssay AID256 (DTP/NCI, 2004)
